This data set has as its system Legumain or cathepsin B. Kind of data set: Enzyme cleaving activation experiment, LC-MS (Examples 38, 39). The format is biochemical. The following applies: pH 5.0, 37° C., 2 h.

Where a SMILES comes first, the peptide text is derived from it. The star is where a group is joined. Belotecan = CC[C@@]1(O)C(=O)OCc2c1cc1n(c2=O)Cc2c-1nc1ccccc1c2CCN(C(C)C)*; Propanoyl(3-maleimido) = O=C1C=CC(=O)N1CCC(=O)*; PEG6 = NCCOCCOCCOCCOCCOCCOCCC(=O)O

Consider `CC[C@@]1(O)C(=O)OCc2c1cc1n(c2=O)Cc2c-1nc1ccccc1c2CCN(C(=O)CNC(=O)[C@H](CC(N)=O)NC(=O)[C@H](C)NC(=O)[C@H](C)NC(=O)CCOCCOCCOCCOCCOCCOCCNC(=O)CCN1C(=O)C=CC1=O)C(C)C` [MI-6PEG-AANG-Belotecan] ({Propanoyl(3-maleimido)-PEG6}-AANG-Belotecan), for which the Enzymatically cleaved structure (Example 38) is given as “G-Belotecan”.

`CC[C@@]1(O)C(=O)OCc2c1cc1n(c2=O)Cc2c-1nc1ccccc1c2CCN(C(=O)CNC(=O)[C@H](Cc1ccccc1)NC(=O)CNC(=O)CNC(=O)CCOCCOCCOCCOCCOCCOCCNC(=O)CCN1C(=O)C=CC1=O)C(C)C` [MI-6PEG-GGFG-Belotecan] ({Propanoyl(3-maleimido)-PEG6}-GGFG-Belotecan): the Enzymatically cleaved structure (Example 38) is given as “Belotecan”.

Consider `CC[C@@]1(O)C(=O)OCC2=C1C=C1c3nc4ccccc4c(CCN(C(=O)OCc4ccc(NC(=O)[C@H](CC(N)=O)NC(=O)[C@H](C)NC(=O)[C@H](C)NC(=O)CCOCCOCCOCCOCCOCCOCCNC(=O)CCN5C(=O)C=CC5=O)cc4)C(C)C)c3CN1C2` [MI-6PEG-AAN-PAB-Belotecan], for which the Enzymatically cleaved structure (Example 38) is given as “Belotecan”.

As for `CC[C@@]1(O)C(=O)OCc2c1cc1n(c2=O)Cc2c-1nc1ccccc1c2CCN(C(=O)[C@H](CC(C)C)NC(=O)[C@H](Cc1ccccc1)NC(=O)CNC(=O)CNC(=O)CCOCCOCCOCCOCCOCCOCCNC(=O)CCN1C(=O)C=CC1=O)C(C)C` [MI-6PEG-GGFL-Belotecan] ({Propanoyl(3-maleimido)-PEG6}-GGFL-Belotecan), the Enzymatically cleaved structure (Example 39) is on record as “Belotecan”.

Source of the values: US20250235545A1, “POLYPEPTIDE CONJUGATE AND USE THEREOF” (SHANGHAI CHIXI BIOMEDICAL TECHNOLOGY CO., LTD, priority 2024, published 2025).
